PubChem BioAssay AID1259308 – NCATS – 2017
The whole screen tested about 59,000 reagents; shown is an unselected part. About 1,510 of all reagents (2.6%) count as active. 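Calls use total luciferase alone and ignore viability, so some active siRNAs may act by altering cell number.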 Reagents against one gene are numbered here. Further read-outs or replicates are left out here.

Test: 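Candidate targets for better recombinant protein yield in mammalian cells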 (primary screen)
System: human HEK293 embryonic kidney cells stably expressing firefly luciferase (HEK-CMV-Luc2-Hygro)
Reagents: single siRNA against human genes, 0.8 pmol siRNA per well
Time to read-out: 72 h
Measurement: 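Luciferase light (ONE-Glo) measured on one replicate plate set and viability (CellTiter-Glo) on the other, scaled to a negative control siRNA, with robust z-scores and luciferase per cell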
Direction: total luciferase, z-score and total luciferase, % of control: higher = more reporter protein produced; luciferase per cell, z-score: higher = more reporter output per viable cell
Hit rule: 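An siRNA counts as active if its total luciferase robust z-score exceeds 3; genes with two or more such siRNAs out of three were retested with fresh siRNAs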
Meaning of the calls: active = raised luciferase; inactive = no rise

no.	gene	reagent	total luciferase, z-score	total luciferase, % of control	luciferase per cell, z-score	activity call
1	POLR1D (RNA polymerase I and III subunit D)	1	-0.0727	80.4	0.163	inactive
2	POLR1D (RNA polymerase I and III subunit D)	2	0.544	92.7	0.44	inactive
3	POLR1D (RNA polymerase I and III subunit D)	3	-1.12	59.6	-0.99	inactive
4	GDAP1 (ganglioside induced differentiation associated protein 1)	1	1.02	102	0.806	inactive
5	GDAP1 (ganglioside induced differentiation associated protein 1)	2	0.0647	83.2	-0.0103	inactive
6	GDAP1 (ganglioside induced differentiation associated protein 1)	3	1.44	111	0.716	inactive
7	FGD5 (FYVE, RhoGEF and PH domain containing 5)	1	-1.1	60	-0.682	inactive
8	FGD5 (FYVE, RhoGEF and PH domain containing 5)	2	-0.242	77.1	0.405	inactive
9	FGD5 (FYVE, RhoGEF and PH domain containing 5)	3	0.97	101	1.36	inactive
10	IGF1 (insulin like growth factor 1)	1	-0.427	73.4	-0.402	inactive
11	IGF1 (insulin like growth factor 1)	2	1.73	116	0.304	inactive
12	IGF1 (insulin like growth factor 1)	3	1.1	104	0.222	inactive
13	MS4A1 (membrane spanning 4-domains A1)	1	-0.247	77	-0.6	inactive
14	MS4A1 (membrane spanning 4-domains A1)	2	0.75	96.8	1.44	inactive
15	MS4A1 (membrane spanning 4-domains A1)	3	0.00545	82	-0.124	inactive
16	MIR4453HG (MIR4453 host gene)	1	0.125	84.4	-0.0211	inactive
17	MIR4453HG (MIR4453 host gene)	2	0.322	88.3	0.273	inactive
18	MIR4453HG (MIR4453 host gene)	3	2.48	131	1.55	inactive
19	HMOX1 (heme oxygenase 1)	1	0.0266	82.4	-1.39	inactive
20	HMOX1 (heme oxygenase 1)	2	1.86	119	0.526	inactive
21	HMOX1 (heme oxygenase 1)	3	0.674	95.3	0.686	inactive

Reprinted from above for reference:
no.	gene	reagent	total luciferase, z-score	total luciferase, % of control	luciferase per cell, z-score	activity call
13	MS4A1 (membrane spanning 4-domains A1)	1	-0.247	77	-0.6	inactive
14	MS4A1 (membrane spanning 4-domains A1)	2	0.75	96.8	1.44	inactive
15	MS4A1 (membrane spanning 4-domains A1)	3	0.00545	82	-0.124	inactive

The results go on:
no.	gene	reagent	total luciferase, z-score	total luciferase, % of control	luciferase per cell, z-score	activity call
22	MYNN (myoneurin)	1	0.963	101	0.428	inactive
23	MYNN (myoneurin)	2	2.01	122	2.21	inactive
24	MYNN (myoneurin)	3	0.0529	82.9	0.106	inactive
25	OR10Z1 (olfactory receptor family 10 subfamily Z member 1)	1	0.747	96.7	0.547	inactive
26	OR10Z1 (olfactory receptor family 10 subfamily Z member 1)	2	-0.754	66.9	-1.71	inactive
27	OR10Z1 (olfactory receptor family 10 subfamily Z member 1)	3	-0.656	68.8	-0.966	inactive
28	OR4L1 (olfactory receptor family 4 subfamily L member 1)	1	0.109	84	-0.435	inactive
29	OR4L1 (olfactory receptor family 4 subfamily L member 1)	2	-0.1	79.9	-0.524	inactive
30	OR4L1 (olfactory receptor family 4 subfamily L member 1)	3	-0.18	78.3	-0.509	inactive
31	PEX11A (peroxisomal biogenesis factor 11 alpha)	1	0.263	87.1	1.28	inactive
32	PEX11A (peroxisomal biogenesis factor 11 alpha)	2	0.647	94.7	0.484	inactive
33	PEX11A (peroxisomal biogenesis factor 11 alpha)	3	0.478	91.4	-0.516	inactive
34	BEND3 (BEN domain containing 3)	1	0.382	89.5	0.342	inactive
35	BEND3 (BEN domain containing 3)	2	1.37	109	1.35	inactive
36	BEND3 (BEN domain containing 3)	3	0.444	90.7	-0.413	inactive
37	MMP7 (matrix metallopeptidase 7)	1	1.7	116	1.12	inactive
38	MMP7 (matrix metallopeptidase 7)	2	-0.011	81.7	-0.0354	inactive
39	MMP7 (matrix metallopeptidase 7)	3	0.0764	83.4	-0.671	inactive
40	MRPL39 (mitochondrial ribosomal protein L39)	1	-0.736	67.3	-1.62	inactive
41	MRPL39 (mitochondrial ribosomal protein L39)	2	0.649	94.8	0.199	inactive
42	MRPL39 (mitochondrial ribosomal protein L39)	3	-0.986	62.3	-0.798	inactive
43	RPS15AP9 (ribosomal protein S15a pseudogene 9)	1	0.51	92	0.227	inactive
44	RPS15AP9 (ribosomal protein S15a pseudogene 9)	2	-0.784	66.3	-0.297	inactive
45	RPS15AP9 (ribosomal protein S15a pseudogene 9)	3	-1.12	59.6	-0.516	inactive
46	NPIPB2 (nuclear pore complex interacting protein family member B2)	1	2.53	132	2.96	inactive
47	NPIPB2 (nuclear pore complex interacting protein family member B2)	2	-1.05	60.9	-0.776	inactive
48	NPIPB2 (nuclear pore complex interacting protein family member B2)	3	-2.06	40.9	-2.43	inactive
49	ANAPC13 (anaphase promoting complex subunit 13)	1	1.43	110	1.39	inactive
50	ANAPC13 (anaphase promoting complex subunit 13)	2	-0.158	78.8	-0.675	inactive
51	ANAPC13 (anaphase promoting complex subunit 13)	3	2.27	127	1.73	inactive
52	U2SURP (U2 snRNP associated SURP domain containing)	1	-0.894	64.1	0.351	inactive
53	U2SURP (U2 snRNP associated SURP domain containing)	2	1.38	109	1.01	inactive
54	U2SURP (U2 snRNP associated SURP domain containing)	3	2.11	124	1.75	inactive
55	ASH1L (ASH1 like histone lysine methyltransferase)	1	-0.265	76.6	-0.801	inactive
56	ASH1L (ASH1 like histone lysine methyltransferase)	2	0.299	87.8	-0.582	inactive
57	ASH1L (ASH1 like histone lysine methyltransferase)	3	-1.6	50	-1.5	inactive
